The list shows a part of the results.
What follows are targets tested with Cc1cc(ccc1-c1ccccc1)C(=O)N1CCCN(CC1)C(=O)CCl [compound 10] (assay: probe-labelled cysteine peptide fold change vs DMSO (competition) (log2 fold change); higher = less target engagement (more negative = stronger competition)). Details: 10 µM; THP-1; incubation time: 4 h.
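Note: competitive profiling in live THP-1 cells: cysteine peptides tagged with an iodoacetamide desthiobiotin (IA-DTB) probe, intensity after compound treatment relative to DMSO-treated cells.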

The chains behind the UniProt entries cited, without tags or fusion partners. Where a name states a change or a piece, a line headed by the entry shows the natural chain unless it says otherwise.
UniProt Q9UK99: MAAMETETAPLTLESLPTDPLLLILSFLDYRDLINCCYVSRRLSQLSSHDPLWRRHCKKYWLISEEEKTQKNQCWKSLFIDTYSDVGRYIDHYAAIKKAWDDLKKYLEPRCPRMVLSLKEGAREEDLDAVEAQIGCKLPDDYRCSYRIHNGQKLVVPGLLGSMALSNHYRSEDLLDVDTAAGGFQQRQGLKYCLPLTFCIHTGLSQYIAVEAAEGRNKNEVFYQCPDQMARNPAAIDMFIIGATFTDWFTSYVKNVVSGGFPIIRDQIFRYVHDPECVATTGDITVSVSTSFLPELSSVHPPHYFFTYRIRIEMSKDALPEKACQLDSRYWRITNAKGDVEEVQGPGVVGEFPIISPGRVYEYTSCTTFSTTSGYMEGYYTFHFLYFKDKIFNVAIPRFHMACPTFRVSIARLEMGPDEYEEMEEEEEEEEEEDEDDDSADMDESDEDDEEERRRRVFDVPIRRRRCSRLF
UniProt O75063: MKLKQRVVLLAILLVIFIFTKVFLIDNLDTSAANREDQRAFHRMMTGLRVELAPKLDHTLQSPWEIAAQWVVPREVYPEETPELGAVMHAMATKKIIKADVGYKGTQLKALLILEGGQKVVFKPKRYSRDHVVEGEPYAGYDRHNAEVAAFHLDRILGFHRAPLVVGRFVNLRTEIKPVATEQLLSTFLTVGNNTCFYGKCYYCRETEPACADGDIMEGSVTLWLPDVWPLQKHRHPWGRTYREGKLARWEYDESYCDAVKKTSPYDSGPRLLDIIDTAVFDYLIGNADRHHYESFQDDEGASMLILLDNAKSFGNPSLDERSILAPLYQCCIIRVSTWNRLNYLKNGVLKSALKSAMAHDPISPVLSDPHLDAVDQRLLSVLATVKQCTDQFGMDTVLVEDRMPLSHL
UniProt P07332: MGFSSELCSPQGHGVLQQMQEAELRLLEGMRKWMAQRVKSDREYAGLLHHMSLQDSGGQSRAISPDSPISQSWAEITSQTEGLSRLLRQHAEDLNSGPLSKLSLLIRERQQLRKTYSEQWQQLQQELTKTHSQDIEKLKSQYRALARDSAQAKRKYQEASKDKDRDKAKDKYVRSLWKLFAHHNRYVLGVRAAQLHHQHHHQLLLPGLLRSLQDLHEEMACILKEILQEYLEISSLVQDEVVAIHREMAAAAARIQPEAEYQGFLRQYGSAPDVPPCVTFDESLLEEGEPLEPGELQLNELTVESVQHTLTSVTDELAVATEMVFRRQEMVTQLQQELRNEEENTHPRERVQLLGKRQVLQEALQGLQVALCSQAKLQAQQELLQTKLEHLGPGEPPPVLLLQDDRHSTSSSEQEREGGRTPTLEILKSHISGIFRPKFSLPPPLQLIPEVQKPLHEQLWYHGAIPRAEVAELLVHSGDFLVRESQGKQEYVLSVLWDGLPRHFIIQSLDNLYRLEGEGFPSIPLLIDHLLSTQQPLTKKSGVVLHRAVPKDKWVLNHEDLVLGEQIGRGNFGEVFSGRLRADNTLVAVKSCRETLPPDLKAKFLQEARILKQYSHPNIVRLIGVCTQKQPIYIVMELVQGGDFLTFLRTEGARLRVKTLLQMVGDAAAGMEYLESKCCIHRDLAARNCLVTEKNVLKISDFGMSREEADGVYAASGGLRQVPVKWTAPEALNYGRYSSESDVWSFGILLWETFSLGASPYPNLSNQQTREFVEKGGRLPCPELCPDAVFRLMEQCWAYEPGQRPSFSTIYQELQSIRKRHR
UniProt P37268: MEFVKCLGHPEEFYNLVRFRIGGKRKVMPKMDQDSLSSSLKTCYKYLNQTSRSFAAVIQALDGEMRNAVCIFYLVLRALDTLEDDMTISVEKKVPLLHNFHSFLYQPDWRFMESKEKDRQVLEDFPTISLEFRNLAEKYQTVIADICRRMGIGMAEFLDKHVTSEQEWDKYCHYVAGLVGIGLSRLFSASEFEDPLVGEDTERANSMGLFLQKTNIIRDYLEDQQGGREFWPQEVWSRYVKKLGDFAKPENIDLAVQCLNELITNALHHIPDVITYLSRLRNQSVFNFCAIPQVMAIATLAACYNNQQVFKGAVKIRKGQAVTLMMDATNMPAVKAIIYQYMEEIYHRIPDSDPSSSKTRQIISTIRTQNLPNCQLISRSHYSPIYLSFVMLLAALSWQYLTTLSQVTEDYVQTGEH
UniProt Q9BQL6: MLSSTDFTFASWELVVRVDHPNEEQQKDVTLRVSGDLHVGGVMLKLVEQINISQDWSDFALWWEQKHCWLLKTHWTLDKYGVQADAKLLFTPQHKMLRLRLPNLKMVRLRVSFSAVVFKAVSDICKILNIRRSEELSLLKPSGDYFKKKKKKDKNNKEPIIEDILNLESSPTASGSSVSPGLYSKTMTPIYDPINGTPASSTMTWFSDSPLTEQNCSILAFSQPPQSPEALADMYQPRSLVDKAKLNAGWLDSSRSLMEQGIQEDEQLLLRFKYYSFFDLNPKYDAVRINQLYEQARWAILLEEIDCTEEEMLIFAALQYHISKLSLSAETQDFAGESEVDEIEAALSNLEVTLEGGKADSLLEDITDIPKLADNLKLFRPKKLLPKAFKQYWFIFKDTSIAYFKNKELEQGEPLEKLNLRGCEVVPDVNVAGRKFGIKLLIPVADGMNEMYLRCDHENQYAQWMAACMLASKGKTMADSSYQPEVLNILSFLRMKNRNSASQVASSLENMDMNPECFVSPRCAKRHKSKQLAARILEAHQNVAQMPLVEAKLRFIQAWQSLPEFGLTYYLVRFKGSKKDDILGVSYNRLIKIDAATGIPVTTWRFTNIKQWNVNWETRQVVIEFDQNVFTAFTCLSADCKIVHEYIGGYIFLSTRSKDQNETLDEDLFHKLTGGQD
UniProt P10109: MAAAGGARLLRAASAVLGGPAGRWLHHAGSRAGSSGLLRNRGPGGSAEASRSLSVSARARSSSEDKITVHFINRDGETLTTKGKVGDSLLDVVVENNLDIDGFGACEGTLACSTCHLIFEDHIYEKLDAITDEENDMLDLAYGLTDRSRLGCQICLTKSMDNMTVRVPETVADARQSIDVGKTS
UniProt Q9NYY8: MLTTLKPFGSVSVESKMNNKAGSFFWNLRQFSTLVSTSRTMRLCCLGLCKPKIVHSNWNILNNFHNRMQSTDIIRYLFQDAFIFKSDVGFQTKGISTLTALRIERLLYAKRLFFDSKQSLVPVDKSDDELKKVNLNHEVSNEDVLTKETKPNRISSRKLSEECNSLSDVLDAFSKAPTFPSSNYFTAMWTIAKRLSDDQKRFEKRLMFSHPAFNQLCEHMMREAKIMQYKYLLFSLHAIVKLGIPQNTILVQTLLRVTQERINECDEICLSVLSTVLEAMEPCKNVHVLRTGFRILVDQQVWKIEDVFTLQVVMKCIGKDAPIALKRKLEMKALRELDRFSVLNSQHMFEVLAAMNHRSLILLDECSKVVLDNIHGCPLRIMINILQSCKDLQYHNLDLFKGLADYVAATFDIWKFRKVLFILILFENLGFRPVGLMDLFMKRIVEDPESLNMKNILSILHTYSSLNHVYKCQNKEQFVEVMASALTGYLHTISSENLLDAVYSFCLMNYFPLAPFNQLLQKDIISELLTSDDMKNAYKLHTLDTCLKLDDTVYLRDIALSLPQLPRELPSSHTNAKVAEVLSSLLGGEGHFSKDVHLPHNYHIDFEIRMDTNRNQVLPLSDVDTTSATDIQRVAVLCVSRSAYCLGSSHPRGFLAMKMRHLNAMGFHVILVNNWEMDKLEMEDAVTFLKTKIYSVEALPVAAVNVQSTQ
UniProt P55899: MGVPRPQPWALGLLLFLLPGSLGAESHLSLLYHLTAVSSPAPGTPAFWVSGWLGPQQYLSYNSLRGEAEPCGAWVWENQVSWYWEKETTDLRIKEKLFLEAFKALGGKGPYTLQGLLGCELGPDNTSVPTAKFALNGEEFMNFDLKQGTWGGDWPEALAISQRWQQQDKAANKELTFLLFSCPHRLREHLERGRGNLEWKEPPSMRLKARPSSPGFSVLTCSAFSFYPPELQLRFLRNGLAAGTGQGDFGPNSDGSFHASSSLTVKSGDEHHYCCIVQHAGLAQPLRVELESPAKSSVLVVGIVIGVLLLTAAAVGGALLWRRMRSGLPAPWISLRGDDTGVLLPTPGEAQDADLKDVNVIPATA
UniProt Q8TB52: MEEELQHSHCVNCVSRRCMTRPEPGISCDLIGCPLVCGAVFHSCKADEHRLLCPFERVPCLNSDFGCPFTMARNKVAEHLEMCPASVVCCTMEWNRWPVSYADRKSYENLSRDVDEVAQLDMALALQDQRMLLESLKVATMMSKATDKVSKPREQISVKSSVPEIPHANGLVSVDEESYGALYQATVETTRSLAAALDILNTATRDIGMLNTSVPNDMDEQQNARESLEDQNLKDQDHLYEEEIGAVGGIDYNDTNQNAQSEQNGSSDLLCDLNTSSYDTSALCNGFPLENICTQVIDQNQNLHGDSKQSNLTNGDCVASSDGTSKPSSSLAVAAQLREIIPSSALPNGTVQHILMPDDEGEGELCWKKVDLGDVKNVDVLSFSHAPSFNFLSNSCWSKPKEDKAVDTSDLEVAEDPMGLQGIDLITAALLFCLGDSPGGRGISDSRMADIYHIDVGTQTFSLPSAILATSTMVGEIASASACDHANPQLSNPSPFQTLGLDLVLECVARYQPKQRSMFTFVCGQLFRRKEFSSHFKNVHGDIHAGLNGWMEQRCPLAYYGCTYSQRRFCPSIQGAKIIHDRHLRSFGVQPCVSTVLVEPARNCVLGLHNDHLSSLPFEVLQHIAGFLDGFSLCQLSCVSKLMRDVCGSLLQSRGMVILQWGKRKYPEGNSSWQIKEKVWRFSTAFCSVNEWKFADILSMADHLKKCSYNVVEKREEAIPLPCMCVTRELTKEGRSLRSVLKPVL
UniProt Q9NX38: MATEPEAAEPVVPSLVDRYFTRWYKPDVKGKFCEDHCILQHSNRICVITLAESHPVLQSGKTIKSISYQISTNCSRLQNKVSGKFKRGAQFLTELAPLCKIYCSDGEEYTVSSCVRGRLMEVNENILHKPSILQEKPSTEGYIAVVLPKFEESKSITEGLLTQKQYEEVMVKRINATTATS
UniProt Q8NB91: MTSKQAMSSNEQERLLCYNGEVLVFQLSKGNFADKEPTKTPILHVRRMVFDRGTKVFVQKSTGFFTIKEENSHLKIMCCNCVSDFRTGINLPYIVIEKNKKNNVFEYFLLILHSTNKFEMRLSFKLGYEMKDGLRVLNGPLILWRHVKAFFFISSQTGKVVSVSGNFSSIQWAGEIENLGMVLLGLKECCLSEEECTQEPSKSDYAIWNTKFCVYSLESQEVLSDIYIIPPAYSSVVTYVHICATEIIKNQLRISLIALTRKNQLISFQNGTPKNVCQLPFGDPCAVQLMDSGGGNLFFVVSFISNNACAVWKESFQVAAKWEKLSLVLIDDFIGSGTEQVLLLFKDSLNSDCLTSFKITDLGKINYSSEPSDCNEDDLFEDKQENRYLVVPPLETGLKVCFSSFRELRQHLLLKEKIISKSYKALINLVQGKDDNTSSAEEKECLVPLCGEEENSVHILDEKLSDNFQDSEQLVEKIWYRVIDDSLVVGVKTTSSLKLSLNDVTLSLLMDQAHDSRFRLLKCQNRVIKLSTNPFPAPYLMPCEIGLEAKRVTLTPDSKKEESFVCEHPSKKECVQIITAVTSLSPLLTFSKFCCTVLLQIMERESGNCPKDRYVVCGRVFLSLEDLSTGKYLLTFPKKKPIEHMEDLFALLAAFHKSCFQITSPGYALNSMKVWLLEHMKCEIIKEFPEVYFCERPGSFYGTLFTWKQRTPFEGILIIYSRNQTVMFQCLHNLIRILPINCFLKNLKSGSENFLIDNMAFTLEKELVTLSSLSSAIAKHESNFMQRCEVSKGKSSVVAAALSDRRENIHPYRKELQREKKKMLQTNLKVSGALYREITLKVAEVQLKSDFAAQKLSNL
UniProt P22570: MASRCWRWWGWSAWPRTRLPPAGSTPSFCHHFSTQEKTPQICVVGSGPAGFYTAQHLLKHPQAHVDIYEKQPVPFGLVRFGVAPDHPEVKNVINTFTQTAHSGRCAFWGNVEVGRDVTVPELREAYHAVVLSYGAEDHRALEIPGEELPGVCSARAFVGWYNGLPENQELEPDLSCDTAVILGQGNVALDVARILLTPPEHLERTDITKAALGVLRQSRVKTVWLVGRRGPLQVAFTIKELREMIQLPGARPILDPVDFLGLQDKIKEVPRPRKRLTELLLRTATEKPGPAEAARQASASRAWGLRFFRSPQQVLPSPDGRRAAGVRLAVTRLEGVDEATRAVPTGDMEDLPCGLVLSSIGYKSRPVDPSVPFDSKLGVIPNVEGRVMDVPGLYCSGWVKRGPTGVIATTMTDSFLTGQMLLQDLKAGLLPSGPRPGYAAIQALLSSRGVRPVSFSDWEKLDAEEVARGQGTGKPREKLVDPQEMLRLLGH

Row | Target | probe-labelled cysteine peptide fold change
1 | FBXO3_Q9UK99_403_FHMACPTFR (UniProt Q9UK99) | -0.0404
2 | FAM20B_O75063_331_SILAPLYQCCIIR (UniProt O75063) | -0.129
3 | FASN_P49327_2010+2024_EACPELDYFVVFSSVSCGR (UniProt P49327) | 0.456
4 | FASN_P49327_1186_LLSAACR (UniProt P49327) | 0.0684
5 | FES_P07332_785_LPCPELCPDAVFR (UniProt P07332) | 0.121
6 | FDFT1_P37268_172_YCHYVAGLVGIGLSR (UniProt P37268) | 0.106
7 | FERMT1_Q9BQL6_423_GCEVVPDVNVAGR (UniProt Q9BQL6) | -0.308
8 | FDX1_P10109_152+155_LGCQICLTK (UniProt P10109) | -0.319
9 | FER_P16591-3_23_DQLESGFGSQSCK (UniProt P16591) | -0.151
10 | FASN_P49327_1558_HAQPTCPGAQLCTVYYASLNFRDIMLATGK (UniProt P49327) | -0.297
11 | FARSB_Q9NSD9_498_HLCAVYYNK (UniProt Q9NSD9) | -0.135
12 | FBXL15_Q9H469_150_LSLAHCDWVDGLALR (UniProt Q9H469) | 0.00924
13 | FAM208A_Q9UK61_1245_FYIHEEEESVLCK (UniProt Q9UK61) | -0.0476
14 | FCHSD2_O94868_260_TELETCQAVQNTFQFLLENSSK (UniProt O94868) | 0.0999
15 | FASTKD2_Q9NYY8_366_SLILLDECSK (UniProt Q9NYY8) | 0.19
16 | FCGRT_P55899_275_SGDEHHYCCIVQHAGLAQPLR (UniProt P55899) | 0.0281
17 | FAM160A2_Q8N612_927_NAVYCAVIFPEFLK (UniProt Q8N612) | 0.403
18 | FBXO30_Q8TB52_592_SFGVQPCVSTVLVEPAR (UniProt Q8TB52) | -0.00516
19 | FAM91A1_Q658Y4_750_IAAHGLCR (UniProt Q658Y4) | 0.00721
20 | FAM206A_Q9NX38_74_SISYQISTNCSR (UniProt Q9NX38) | -0.121

Same assay, conditions: 50 µM; THP-1; incubation time: 4 h

Row | Target | probe-labelled cysteine peptide fold change
21 | FASTKD1_Q53R41_446_IEAVLPQCDLNNLSSFATSVLR (UniProt Q53R41) | 0.22
22 | FANCB_Q8NB91_543_LSTNPFPAPYLMPCEIGLEAK (UniProt Q8NB91) | -0.211
23 | FASN_P49327_1227_ACLDTAVENMPSLK (UniProt P49327) | -0.11
24 | FAR2_Q96K12_111_EDMQELLSCTNIIFHCAATVR (UniProt Q96K12) | 0.312
25 | FBXO4_Q9UKT5_330_HEWQDEFSHIMAMTDPAFGSSGRPLLVLSCISQGDVK (UniProt Q9UKT5) | -0.08
26 | FASTKD2_Q9NYY8_645_SAYCLGSSHPR (UniProt Q9NYY8) | -0.0395
27 | FASTKD2_Q9NYY8_546_LHTLDTCLK (UniProt Q9NYY8) | 0.141
28 | FBXL19_Q6PCT2_637_ETLVHLNLAGCHR (UniProt Q6PCT2) | -0.516
29 | FBXO7_Q9Y3I1_286_RLQLLPESFICK (UniProt Q9Y3I1) | 0.191
30 | FDXR_P22570_42_TPQICVVGSGPAGFYTAQHLLK (UniProt P22570) | 0.167
31 | FASN_P49327_1141_AALQEELQLCK (UniProt P49327) | 0.302
32 | FBXO30_Q8TB52_90_VAEHLEMCPASVVCCTMEWNR (UniProt Q8TB52) | -0.0583
33 | FGG_P02679_34_DNCCILDER (UniProt P02679) | -0.0532
34 | FAT1_Q14517_574_INCEGTIPR (UniProt Q14517) | -0.116
35 | FASN_P49327_1127_FCFTPHTEEGCLSER (UniProt P49327) | -0.0872
36 | FASN_P49327_630_EAHLPPGAMAAVGLSWEECK (UniProt P49327) | 0.167
37 | FBXO3_Q9UK99_403_FHMACPTFR (UniProt Q9UK99) | -0.224
38 | FAM20B_O75063_331_SILAPLYQCCIIR (UniProt O75063) | 0.232
39 | FASN_P49327_2010+2024_EACPELDYFVVFSSVSCGR (UniProt P49327) | 0.616
40 | FASN_P49327_1186_LLSAACR (UniProt P49327) | -0.0954
41 | FES_P07332_785_LPCPELCPDAVFR (UniProt P07332) | 0.02
42 | FDFT1_P37268_172_YCHYVAGLVGIGLSR (UniProt P37268) | 0.183
43 | FERMT1_Q9BQL6_423_GCEVVPDVNVAGR (UniProt Q9BQL6) | -0.0654
44 | FDX1_P10109_152+155_LGCQICLTK (UniProt P10109) | -0.896

From the supplement of paper PMC12067093, “Discovery and optimisation of a covalent ligand for TRIM25 and its application to targeted protein ubiquitination” (Chemical Science, 2025)
